Values from PubChem BioAssay AID504786 (Drosophila RNAi Screening Center, 2011)
Test: 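Positive regulators of HIF-driven reporter output in Drosophila cells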 (primary screen). System: Drosophila S2 cells with a stable HIF luciferase reporter. Reagent: long dsRNA against Drosophila genes, about 0.2 µg dsRNA per well of a 384-well plate. Timing: three days of knock-down, then 20 h of DFO before reading. Treatment: desferrioxamine (DFO) at 100 µM, an iron chelator that mimics hypoxia, for 20 h. Measured: 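Firefly luciferase driven by the mouse ldh-a hypoxia-response element, measured after 20 h of 100 µM DFO; z-scores per plate, higher means more signal lost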. Direction: z-score: higher = stronger loss of HIF reporter signal.
The deposit covers about 21,000 reagents; this is a random part of those with a known target gene and a result. 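Primary screen; positive scores mean lost reporter signal, so the sign may be inverted from the usual convention.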 Reagents against one gene are numbered here. A plus sign joins genes that one reagent is predicted to hit.

CG12576
- z-score, replicate 1: -0.6
- z-score, replicate 2: -0.4

CG3984
- z-score, replicate 1: -0.4
- z-score, replicate 2: 0.4

fus #1
- z-score, replicate 1: 0
- z-score, replicate 2: 0.3

fus #2
- z-score, replicate 1: -0.3
- z-score, replicate 2: -0.1

CG18420
- z-score, replicate 1: -0.4
- z-score, replicate 2: -0.5

CG3430
- z-score, replicate 1: -0.3
- z-score, replicate 2: -0.2

CG43322
- z-score, replicate 1: -0.3
- z-score, replicate 2: -0.5

Sbp2
- z-score, replicate 1: -0.1
- z-score, replicate 2: -0.7

flw #1
- z-score, replicate 1: -0.2
- z-score, replicate 2: 0.2

flw #2
- z-score, replicate 1: 0.6
- z-score, replicate 2: 0.3

CG43163 #1
- z-score, replicate 1: -0.4
- z-score, replicate 2: -0.2

CG43163 #2
- z-score, replicate 1: 0
- z-score, replicate 2: -0.1

CG42362 + CG42363
- z-score, replicate 1: 0
- z-score, replicate 2: 0.4

PIG-S #1
- z-score, replicate 1: -0.2
- z-score, replicate 2: -0.1

PIG-S #2
- z-score, replicate 1: -0.4
- z-score, replicate 2: -0.9

PIG-S #3
- z-score, replicate 1: -0.2
- z-score, replicate 2: 0.2

CG7991
- z-score, replicate 1: -0.3
- z-score, replicate 2: -0.4

Ns4
- z-score, replicate 1: -0.3
- z-score, replicate 2: -0.4

Ugt37C2
- z-score, replicate 1: -0.2
- z-score, replicate 2: 0.1

piwi
- z-score, replicate 1: -0.3
- z-score, replicate 2: -0.1

CG32260
- z-score, replicate 1: 0
- z-score, replicate 2: -0.3

CG30356
- z-score, replicate 1: -0.2
- z-score, replicate 2: -0.3

SA1
- z-score, replicate 1: 0
- z-score, replicate 2: 0.1

CG1737
- z-score, replicate 1: 0.2
- z-score, replicate 2: -0.1

CG32091 #1
- z-score, replicate 1: -0.3
- z-score, replicate 2: -0.7

CG32091 #2
- z-score, replicate 1: -0.2
- z-score, replicate 2: -0.5

CG2003
- z-score, replicate 1: -0.3
- z-score, replicate 2: 0.3

Continued, starting with the last 5 of the part before.
SA1
- z-score, replicate 1: 0
- z-score, replicate 2: 0.1

CG1737
- z-score, replicate 1: 0.2
- z-score, replicate 2: -0.1

CG32091 #1
- z-score, replicate 1: -0.3
- z-score, replicate 2: -0.7

CG32091 #2
- z-score, replicate 1: -0.2
- z-score, replicate 2: -0.5

CG2003
- z-score, replicate 1: -0.3
- z-score, replicate 2: 0.3

pie
- z-score, replicate 1: -0.3
- z-score, replicate 2: -0.7

ND-MNLL
- z-score, replicate 1: 0.1
- z-score, replicate 2: -0.3

Osi14
- z-score, replicate 1: 0.3
- z-score, replicate 2: 0.2

CG7896
- z-score, replicate 1: -0.3
- z-score, replicate 2: -0.4

CG33191 + Pif1B
- z-score, replicate 1: -0.3
- z-score, replicate 2: 0.1

Vps11
- z-score, replicate 1: -0.1
- z-score, replicate 2: -0.2

NC2beta
- z-score, replicate 1: -0.4
- z-score, replicate 2: -0.7

Rlb1
- z-score, replicate 1: -0.3
- z-score, replicate 2: -0.3

CG42741
- z-score, replicate 1: -0.3
- z-score, replicate 2: -0.6

CG30060
- z-score, replicate 1: -0.2
- z-score, replicate 2: -0.3

CG8668
- z-score, replicate 1: -0.2
- z-score, replicate 2: -0.2

inaE #1
- z-score, replicate 1: -0.3
- z-score, replicate 2: -0.7

inaE #2
- z-score, replicate 1: -0.3
- z-score, replicate 2: -0.6

inaE #3
- z-score, replicate 1: -0.1
- z-score, replicate 2: 0.1

inaE #4
- z-score, replicate 1: -0.3
- z-score, replicate 2: -0.2

CG31245
- z-score, replicate 1: -0.8
- z-score, replicate 2: -0.1

CG33333
- z-score, replicate 1: -0.3
- z-score, replicate 2: -0.2

CG3309
- z-score, replicate 1: -0.1
- z-score, replicate 2: -0.2

CSN6
- z-score, replicate 1: 2.2
- z-score, replicate 2: 4.3

mRpS18A
- z-score, replicate 1: 1.5
- z-score, replicate 2: 1.5

dpr10 #1
- z-score, replicate 1: -0.3
- z-score, replicate 2: -0.1

dpr10 #2
- z-score, replicate 1: 0
- z-score, replicate 2: -0.9

dpr10 #3
- z-score, replicate 1: -0.2
- z-score, replicate 2: -0.2

dpr10 #4
- z-score, replicate 1: -0.2
- z-score, replicate 2: -0.4
